Measured values: the supplement of paper PMC4604168 (melanoma cell lines)
Some of the results follow. Many values rest on one well or one pass, so single values are uncertain.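 Imaging used 1,536-well plates; nuclei positive for cleaved PARP by antibody were divided by total DNA-stained nuclei to yield the apoptosis fraction. Doses for screening kept most cells viable, and cell lines differ markedly in resting and induced cleaved-PARP levels.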

How the values were obtained:
Experiment in all cases: cleaved PARP positive nuclei fraction relative to DMSO control; melanoma cells; higher = more apoptosis
Details in all cases: library dose: low library concentration; 72 h
WM115 = tested on: WM115
WM1716 = tested on: WM1716
WM1745 = tested on: WM1745
WM3526 = tested on: WM3526
WM3619 = tested on: WM3619
WM451Lu = tested on: WM451Lu

SMILES	cleaved PARP positive nuclei fraction (WM115)	cleaved PARP positive nuclei fraction (WM1716)	cleaved PARP positive nuclei fraction (WM1745)	cleaved PARP positive nuclei fraction (WM3526)	cleaved PARP positive nuclei fraction (WM3619)	cleaved PARP positive nuclei fraction (WM451Lu)
C[C@]1(O)C[C@@H](c2nc(-c3ccc4ccc(-c5ccccc5)nc4c3)c3c(N)nccn32)C1 + Cn1c(Nc2ccc(C(F)(F)F)cc2)nc2cc(Oc3ccnc(-c4ncc(C(F)(F)F)[nH]4)c3)ccc21 [CHIR265] (first compound 0.4 µM, partner dose 0.08 µM)	349%	51.3%	166%	69.9%	128%	28.9%
Cn1cnc2c(F)c(Nc3ccc(Br)cc3Cl)c(C(=O)NOCCO)cc21 [selumetinib] + Nc1ccn([C@@H]2O[C@H](CO)[C@@H](O)C2(F)F)c(=O)n1 [gemcitabine] (first compound 0.015 µM, partner dose 0.0004 µM)	113%	117%	119%	82.5%	123%	137%
NC1(c2ccc(-c3nc4ccn5c(=O)[nH]nc5c4cc3-c3ccccc3)cc2)CCC1 + Cn1cncc1[C@@](N)(c1ccc(Cl)cc1)c1ccc2c(c1)c(-c1cccc(Cl)c1)cc(=O)n2C [tipifarnib] (first compound 0.4 µM, partner dose 0.01 µM)	287%	70.4%	109%	519%	120%	67.9%
CCCCCCCCc1ccc(CCC(N)(CO)CO)cc1 [fingolimod] + O=S(=O)(c1ccccc1)N(CC(F)(F)F)c1ccc(C(O)(C(F)(F)F)C(F)(F)F)cc1 [T0901317] (first compound 2 µM, partner dose 1.4 µM)	115%	142%	144%	182%	136%	40.2%
COc1ccc(C2=N[C@@H](c3ccc(Cl)cc3)[C@@H](c3ccc(Cl)cc3)N2C(=O)N2CCNC(=O)C2)c(OC(C)C)c1 [Nutlin-3] + COCC[n+]1c2c(n(Cc3cnccn3)c1C)C(=O)c1ccccc1C2=O [YM155] (first compound 0.1 µM, partner dose 0.0004 µM)	89%	73.8%	100%	41.4%	94.5%	223%
CN(c1ncccc1CNc1nc(Nc2ccc3c(c2)CC(=O)N3)ncc1C(F)(F)F)S(C)(=O)=O + CC(=O)c1c(C)c2cnc(Nc3ccc(N4CCNCC4)cn3)nc2n(C2CCCC2)c1=O [palbociclib] (first compound 0.08 µM, partner dose 0.04 µM)	73.5%	55%	132%	109%	105%	126%
COc1ccc(C2=N[C@@H](c3ccc(Cl)cc3)[C@@H](c3ccc(Cl)cc3)N2C(=O)N2CCNC(=O)C2)c(OC(C)C)c1 [Nutlin-3] + CCN(CC)CCCCNc1ncc2cc(-c3cc(OC)cc(OC)c3)c(NC(=O)NC(C)(C)C)nc2n1 [PD173074] (first compound 0.1 µM, partner dose 0.1 µM)	87.9%	57%	195%	72.5%	106%	155%
COc1ccc(C2=N[C@@H](c3ccc(Cl)cc3)[C@@H](c3ccc(Cl)cc3)N2C(=O)N2CCNC(=O)C2)c(OC(C)C)c1 [Nutlin-3] + OCc1c[nH]c2ccccc12 [Indole-3-carbinol] (first compound 0.1 µM, partner dose 0.8 µM)	164%	80.7%	90.1%	203%	97.1%	49%
CC(=O)O[C@@]12CO[C@@H]1C[C@H](O)[C@@]1(C)C(=O)[C@H](O)C3=C(C)[C@@H](OC(=O)[C@H](O)[C@@H](NC(=O)OC(C)(C)C)c4ccccc4)C[C@@](O)([C@@H](OC(=O)c4ccccc4)[C@H]21)C3(C)C [Docetaxel] + CN(C)S(=O)(=O)c1ccc2c(c1)/C(=C/c1cc3c([nH]1)CCCC3)C(=O)N2 [SU6656] (first compound 0.0001 µM, partner dose 0.4 µM)	399%	662%	233%	188%	115%	91.1%
Cn1cnc2c(F)c(Nc3ccc(Br)cc3Cl)c(C(=O)NOCCO)cc21 [selumetinib] + Cn1cncc1[C@@](N)(c1ccc(Cl)cc1)c1ccc2c(c1)c(-c1cccc(Cl)c1)cc(=O)n2C [tipifarnib] (first compound 0.015 µM, partner dose 0.01 µM)	223%	114%	175%	79.5%	143%	106%
Cn1sc(=O)n(Cc2ccccc2)c1=O + CO[C@H]1C[C@@H]2CC[C@@H](C)[C@@](O)(O2)C(=O)C(=O)N2CCCC[C@H]2C(=O)O[C@H]([C@H](C)C[C@@H]2CC[C@@H](OCCO)[C@H](OC)C2)CC(=O)[C@H](C)/C=C(\C)[C@@H](O)[C@@H](OC)C(=O)[C@H](C)C[C@H](C)/C=C/C=C/C=C/1C [everolimus] (first compound 0.4 µM, partner dose 0.02 µM)	130%	38.2%	105%	98.7%	117%	239%
CCCCCCCCc1ccc(CCC(N)(CO)CO)cc1 [fingolimod] + C=CCn1c(=O)c2cnc(Nc3ccc(N4CCN(C)CC4)cc3)nc2n1-c1cccc(C(C)(C)O)n1 [MK1775] (first compound 2 µM, partner dose 0.02 µM)	86.4%	170%	129%	34.8%	102%	46.9%
CCCCCCCCc1ccc(CCC(N)(CO)CO)cc1 [fingolimod] + COc1cc(Nc2ncc(F)c(Nc3ccc4c(n3)NC(=O)C(C)(C)O4)n2)cc(OC)c1OC [Tamatinib] (first compound 2 µM, partner dose 0.4 µM)	55.4%	83.8%	258%	186%	95.3%	63.5%
C[C@]1(O)C[C@@H](c2nc(-c3ccc4ccc(-c5ccccc5)nc4c3)c3c(N)nccn32)C1 + C=CCNC1=C2C[C@@H](C)C[C@H](OC)[C@H](O)[C@@H](C)/C=C(\C)[C@H](OC(N)=O)[C@@H](OC)/C=C\C=C(/C)C(=O)NC(=CC1=O)C2=O [Tanespimycin] (first compound 0.4 µM, partner dose 0.002 µM)	60%	83.6%	114%	108%	89.4%	76%
NC(=O)c1ccc(N(C(N)=O)c2c(F)cccc2F)nc1-c1ccc(F)cc1F + COc1ccc(Cl)c(Nc2nc3ccccc3nc2NS(=O)(=O)c2cccc(NC(=O)C(C)(C)N)c2)c1 [XL147] (first compound 0.4 µM, partner dose 0.8 µM)	86.3%	62.4%	96.7%	304%	94.4%	195%
CC1(C)CCC(c2ccc(Cl)cc2)=C(CN2CCN(c3ccc(C(=O)NS(=O)(=O)c4ccc(N[C@H](CCN5CCOCC5)CSc5ccccc5)c(S(=O)(=O)C(F)(F)F)c4)cc3)CC2)C1 + Oc1nc(-c2ccc(C(F)(F)F)cc2)nc2c1CSCC2 [XAV939] (first compound 0.4 µM, partner dose 2 µM)	231%	627%	972%	79.8%	130%	158%
COc1ccc(C2=N[C@@H](c3ccc(Cl)cc3)[C@@H](c3ccc(Cl)cc3)N2C(=O)N2CCNC(=O)C2)c(OC(C)C)c1 [Nutlin-3] + CC(=O)c1c(C)c2cnc(Nc3ccc(N4CCNCC4)cn3)nc2n(C2CCCC2)c1=O [palbociclib] (first compound 0.1 µM, partner dose 0.04 µM)	88.3%	122%	130%	151%	126%	120%
CC1(C)CCC(c2ccc(Cl)cc2)=C(CN2CCN(c3ccc(C(=O)NS(=O)(=O)c4ccc(N[C@H](CCN5CCOCC5)CSc5ccccc5)c(S(=O)(=O)C(F)(F)F)c4)cc3)CC2)C1 + NC(=O)c1ccc(N(C(N)=O)c2c(F)cccc2F)nc1-c1ccc(F)cc1F [VX702] (first compound 0.4 µM, partner dose 0.4 µM)	309%	91.8%	801%	96.1%	121%	411%
Cn1sc(=O)n(Cc2ccccc2)c1=O + COCC[n+]1c2c(n(Cc3cnccn3)c1C)C(=O)c1ccccc1C2=O [YM155] (first compound 0.4 µM, partner dose 0.0004 µM)	92.3%	14.5%	101%	40.3%	90.7%	53.9%
Cn1cnc2c(F)c(Nc3ccc(Br)cc3Cl)c(C(=O)NOCCO)cc21 [selumetinib] + O=C(O)[C@@H]1[O][Sb](=[O])([O][Sb]2(=[O])[O][C@H]([C@H](O)CO)[C@H](O)[C@H](C(=O)O)[O]2)[O][C@H]([C@H](O)CO)[C@@H]1O [stibogluconate] (first compound 0.015 µM, partner dose 2 µM)	212%	125%	104%	131%	157%	122%
NC(=O)c1ccc(N(C(N)=O)c2c(F)cccc2F)nc1-c1ccc(F)cc1F + O=C(O)[C@@H]1[O][Sb](=[O])([O][Sb]2(=[O])[O][C@H]([C@H](O)CO)[C@H](O)[C@H](C(=O)O)[O]2)[O][C@H]([C@H](O)CO)[C@@H]1O [stibogluconate] (first compound 0.4 µM, partner dose 2 µM)	128%	77%	101%	154%	91.6%	79.4%
CC(=O)O[C@@]12CO[C@@H]1C[C@H](O)[C@@]1(C)C(=O)[C@H](O)C3=C(C)[C@@H](OC(=O)[C@H](O)[C@@H](NC(=O)OC(C)(C)C)c4ccccc4)C[C@@](O)([C@@H](OC(=O)c4ccccc4)[C@H]21)C3(C)C [Docetaxel] + Cc1cc(N2CCOCC2)cc2[nH]c(-c3c(NC[C@@H](O)c4cccc(Cl)c4)cc[nH]c3=O)nc12 [BMS536924] (first compound 0.0001 µM, partner dose 0.2 µM)	320%	403%	229%	174%	136%	100%
C[C@@H](N)c1ccc(C(=O)Nc2ccnc3[nH]ccc23)cc1 + OCCn1cc(-c2cnc3nnn(Cc4ccc5ncccc5c4)c3n2)cn1 [PF04217903] (first compound 0.4 µM, partner dose 1 µM)	58.7%	219%	124%	51.1%	112%	73.1%
CC(=O)O[C@@]12CO[C@@H]1C[C@H](O)[C@@]1(C)C(=O)[C@H](O)C3=C(C)[C@@H](OC(=O)[C@H](O)[C@@H](NC(=O)OC(C)(C)C)c4ccccc4)C[C@@](O)([C@@H](OC(=O)c4ccccc4)[C@H]21)C3(C)C [Docetaxel] + C=CCNC1=C2C[C@@H](C)C[C@H](OC)[C@H](O)[C@@H](C)/C=C(\C)[C@H](OC(N)=O)[C@@H](OC)/C=C\C=C(/C)C(=O)NC(=CC1=O)C2=O [Tanespimycin] (first compound 0.0001 µM, partner dose 0.002 µM)	337%	228%	151%	499%	142%	219%

Full records from above.
Cn1cnc2c(F)c(Nc3ccc(Br)cc3Cl)c(C(=O)NOCCO)cc21 [selumetinib] + Nc1ccn([C@@H]2O[C@H](CO)[C@@H](O)C2(F)F)c(=O)n1 [gemcitabine] (first compound 0.015 µM, partner dose 0.0004 µM) reads cleaved PARP positive nuclei fraction (WM115): 113%; cleaved PARP positive nuclei fraction (WM1716): 117%; cleaved PARP positive nuclei fraction (WM1745): 119%; cleaved PARP positive nuclei fraction (WM3526): 82.5%; cleaved PARP positive nuclei fraction (WM3619): 123%; cleaved PARP positive nuclei fraction (WM451Lu): 137%
CCCCCCCCc1ccc(CCC(N)(CO)CO)cc1 [fingolimod] + COc1cc(Nc2ncc(F)c(Nc3ccc4c(n3)NC(=O)C(C)(C)O4)n2)cc(OC)c1OC [Tamatinib] (first compound 2 µM, partner dose 0.4 µM) reads cleaved PARP positive nuclei fraction (WM115): 55.4%; cleaved PARP positive nuclei fraction (WM1716): 83.8%; cleaved PARP positive nuclei fraction (WM1745): 258%; cleaved PARP positive nuclei fraction (WM3526): 186%; cleaved PARP positive nuclei fraction (WM3619): 95.3%; cleaved PARP positive nuclei fraction (WM451Lu): 63.5%
